This assay is described as follows: qHTS Assay for Modulators of Lamin A Splicing. Conditions: HeLa LMNA splicing GFP/RFP minigene ratio, 48 h. The essentials: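 S3 HeLa stable clones carrying a lamin A-EGFP splicing minigene plus DsRed2 were seeded at 600 cells/well in Opti-MEM with 2% FBS, pin-dosed and incubated 48 h at 37°C. Acumen cytometry (488 nm) gave the GFP/RFP total-intensity ratio.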

Where [1] appears, read: measured here: RFP viability control channel.
Where [2] appears, read: measured here: GFP splicing reporter channel.

Structures are written as SMILES. Some of the results follow. The main result of the screen is listed elsewhere. These columns were measured beside it and carry no call. Most of these compounds were active or inconclusive in the main read-out, so they are no random draw. Words in brackets tell the shape of the fitted curve; partial curves, single points and poor fits give uncertain potencies.

Consider `CS(=O)(=O)N(CC(=O)NCCSC1CCCCC1)c1ccccc1`, for which the AC50 under setting [1] is 0.398 µM [rising, full curve, poor fit]. Regarding `Cc1ccc(Nc2ncnc3c2nc2n3CCCC2)c(Br)c1`, the concentration at half-maximal activity (AC50) under setting [2] is 22.4 µM [falling, single point]. For the compound `COc1ccc2nc(N(Cc3cccnc3)C(=O)COc3ccccc3)sc2c1`, the AC50 under setting [1] is 0.141 µM [falling, full curve, poor fit].

Regarding `CCN(CC)S(=O)(=O)c1ccc(NS(=O)(=O)c2ccc(F)cc2)cc1`, the AC50 under setting [2] was 0.01 µM [rising, full curve, poor fit]. For `O=S(=O)(c1ccc(-c2cnc(C3CC3)o2)cc1)N1CCN(c2cccc(Cl)c2)CC1`, the AC50 under setting [1] is 0.00562 µM [falling, full curve, poor fit]. For the compound `C=CCn1c(-c2cccnc2Cl)nc2cc(Cl)c(Cl)cc21`, the AC50 under setting [2] was 3.98 µM [rising, partial curve, poor fit] and the AC50 under setting [1] is 11.2 µM [rising, partial curve, poor fit].

In the case of `O=C(CCc1c[nH]c2ccccc12)N1CCN(c2ccc(F)cc2)CC1`, under setting [1], the AC50 was 3.98 µM [rising, partial curve, poor fit]. Take `CCCOc1ccc(Cc2nn3c(=O)/c(=C/c4ccco4)sc3nc2=O)cc1`: the AC50 runs as follows: under setting [2], 22.4 µM [falling, single point]; under setting [1], 25.1 µM [falling, single point].

Take `COc1ccc(C(=NNc2ccccc2C(=O)O)c2ccc(OC)cc2)cc1`: the AC50 under setting [2] was 15.8 µM [rising, single point]. With `N=c1ccn2c(n1)OC1C(O)C(CO)OC12` (configuration not stated), the AC50 by setting is: under setting [2], 0.0891 µM [falling, full curve]; under setting [1], 0.447 µM [rising, full curve, poor fit].

In the case of `O=C(N/N=C/c1ccc(O)cc1)c1[nH]c2ccc(Br)cc2c1-c1ccccc1`, under setting [1], the AC50 was 3.98 µM [rising, partial curve].

For `CCn1c(C(=O)N2CCCC(C(=O)NCCCc3ccccc3)C2)cc2sccc21` (configuration not stated), the concentration at half-maximal activity (AC50) under setting [1] is 11.2 µM [rising, partial curve]. The same measure, in the same setting: the figure for `Cc1ccc(C(=O)Nc2onc(C)c2C#N)cc1` is 8.91 µM [rising, partial curve]. In the case of `O=C(OCc1ccccc1)c1cccnc1`, the AC50 is, setting by setting: under setting [2], 0.224 µM [falling, full curve, poor fit]; under setting [1], 1 µM [falling, partial curve, poor fit].

Turning to `CC(=O)Oc1cc(C)c(OC(C)=O)c2ccccc12`, the AC50 under setting [1] was 0.000794 µM [rising, full curve, poor fit].

Regarding `COc1ccc(CC(=O)NCc2nc(-c3ccccc3)no2)cc1`, under setting [2], the AC50 was 7.94 µM [rising, partial curve, poor fit]. Same read-out and setting: the figure for `CC(=O)Nc1ccc(NC(=O)CCC(=O)c2ccc(C)cc2)cc1` is 31.6 µM [falling, partial curve]. Take `CC1=CCC2COC(c3ccc[n+](Cc4ccccc4)c3)C1C2` (configuration not stated): the AC50 under setting [1] was 12.6 µM [rising, partial curve]. The same measure, in the same setting: the figure for `CCOC(=O)N=Nc1c2ccccc2c2nc3no[nH]c3nc12` is 2.82 µM [falling, single point].

For the compound `CNc1oc(-c2ccc(COc3ccc(C)cc3)o2)nc1C#N`, the AC50 is 1.78 µM [rising, full curve, poor fit] under setting [2] and 3.16 µM [rising, full curve, poor fit] under setting [1]. For `CCN(CC)C(=O)C1CCCN(c2ccccc2[N+](=O)[O-])C1` (configuration not stated), under setting [1], the AC50 is 0.1 µM [falling, full curve, poor fit]. For the compound `CC(C)C(=O)N1CCN(c2ccc(NC(=O)COc3ccccc3[N+](=O)[O-])cc2)CC1`, the AC50 under setting [2] was 0.891 µM [falling, full curve, poor fit]. On to `CCCOc1ccc(OCC(=O)c2[nH]c(C)c(C(C)=O)c2C)cc1`, for which the AC50 under setting [1] was 6.31 µM [rising, full curve]. Consider `Cc1cccc(NC(=O)CSc2nnc(CCCCCNC(=O)OC(C)(C)C)o2)c1C`, for which the AC50 under setting [2] is 11.2 µM [rising, partial curve, poor fit]. For the compound `O/N=C/c1cccn1-c1ccc(O)cc1`, the AC50 reads like this: under setting [2], 14.1 µM [rising, single point]; under setting [1], 12.6 µM [rising, single point]. As for `CCC(C)CN1CCC(CO)(Cc2ccccc2Cl)CC1` (configuration not stated), the AC50 under setting [2] was 0.891 µM [falling, full curve, poor fit]. `N=C(N)SCCN`: the AC50 under setting [1] was 0.00316 µM [falling, full curve, poor fit]. Regarding `CCOC(=O)c1ccc(NC(=O)CSc2nc(SC)ns2)cc1`, under setting [2], the AC50 is 11.2 µM [rising, single point]. On to `Cc1ccc(C(=O)N2C3C=CC(C3)C2(C(F)(F)F)C(F)(F)F)cc1` (configuration not stated), for which the AC50 is 0.708 µM [falling, full curve] under setting [2] and 1 µM [falling, full curve] under setting [1]. On to `O=C(NC(=S)Nc1nc2c(s1)CCCC2)c1ccc(C(=O)c2ccccc2)cc1`, for which the AC50 under setting [1] is 0.224 µM [rising, full curve, poor fit]. With `Nc1ncnc2c1c(I)cn2C1OC(CO)C(O)C1O` (configuration not stated), the AC50 under setting [2] was 5.01 µM [falling, full curve] and the AC50 under setting [1] is 2.82 µM [falling, full curve]. As for `Cc1nc(C)c(-c2csc(NCCc3ccccc3)n2)s1`, the AC50 under setting [1] is 35.5 µM [rising, single point].

In the case of `COc1cccc(C(=O)O/N=C2\CCS(=O)(=O)c3sccc32)c1`, under setting [2], the AC50 is 3.98 µM [falling, partial curve]. In the case of `CC(=O)c1ccc(NC(=O)CSc2nnc(NC(=O)Nc3ccccc3)s2)cc1`, the AC50 is 0.0282 µM [rising, full curve, poor fit] under setting [2] and 20 µM [rising, partial curve, poor fit] under setting [1]. For `O=C(CSc1ccc(-c2ccc(F)cc2)nn1)NCCc1ccccc1`, under setting [2], the half-maximal activity concentration (AC50) is 35.5 µM [falling, partial curve, poor fit]. With `Cc1ccc(OCC(=O)N2CCN(C(=O)c3cccc(F)c3)CC2)cc1`, the AC50 under setting [2] is 0.282 µM [rising, full curve, poor fit]. For the compound `CC(C)(C)c1cc(C(C)(C)C)c2oc(=O)c(-c3nc4ccc(C(=O)O)cc4[nH]3)cc2c1`, the AC50 runs as follows: under setting [2], 5.01 µM [falling, full curve, poor fit]; under setting [1], 3.55 µM [falling, full curve]. `CCC(=O)Nc1nc2ccccc2n1Cc1ccccc1`: the AC50 was 28.2 µM [rising, single point] under setting [2] and 35.5 µM [rising, single point] under setting [1]. On to `COc1cc(CNn2nnnc2N)cc(Br)c1OCc1c(Cl)cccc1Cl`, for which the AC50 is, setting by setting: under setting [2], 20 µM [rising, single point]; under setting [1], 28.2 µM [rising, single point]. For the compound `CCOC(=O)c1ccccc1NC(=O)CSc1cc(C)[nH]c(=O)n1`, under setting [2], the AC50 was 0.141 µM [falling, single point]. As for `CCOC(=O)N1CCN(C(=O)c2ccccc2-c2ccccc2)CC1`, the AC50 under setting [1] was 11.2 µM [rising, partial curve, poor fit].

Take `COc1ccccc1OCC(=O)NNC(=O)Nc1ccc(Cl)cc1`: the AC50 under setting [1] is 7.08 µM [rising, partial curve, poor fit]. For `Cc1ccnc(N=Cc2c(O)ccc3oc4c(c23)CCCC4)c1`, the AC50 under setting [1] is 22.4 µM [rising, single point]. With `CCn1c(SCC(=O)c2cc(C)n(CC3CCCO3)c2C)nc2ccccc21` (configuration not stated), the AC50 under setting [1] is 35.5 µM [rising, single point].

Turning to `CC(=O)NNC(=O)c1nc(-c2ccccc2)c(C)o1`, the AC50 under setting [2] is 35.5 µM [rising, single point].

In the case of `CCOC(=O)c1[nH]c2ccc(OC)cc2c1NC(=O)OC`, the AC50 is, setting by setting: under setting [2], 14.1 µM [rising, single point]; under setting [1], 25.1 µM [rising, single point]. For `Cc1cccc(OCc2nnc(SCc3nc4cc(C(F)(F)F)ccc4c(=O)[nH]3)o2)c1`, the AC50 under setting [2] was 7.08 µM [rising, partial curve]. Regarding `CC(=O)Oc1cc2c(C(=O)NCCCN3CCOCC3)c(C)oc2c2ccccc12`, the AC50 reads like this: under setting [2], 12.6 µM [rising, partial curve]; under setting [1], 10 µM [rising, partial curve]. For the compound `CCCCn1c(-c2ccc([N+](=O)[O-])cc2)n[nH]c1=S`, the AC50 under setting [2] is 7.94 µM [rising, single point] and the AC50 under setting [1] is 0.0501 µM [rising, full curve, poor fit].

As to `CCCCC1C(=O)N(c2ccccc2)N(c2ccccc2)C1=O`, the AC50 under setting [2] was 0.00794 µM [rising, full curve, poor fit] and the AC50 under setting [1] is 0.01 µM [rising, full curve, poor fit]. On to `CS(=O)(=O)c1ccc(C(=O)N2CCN(Cc3ccccc3)CC2)cc1`, for which the AC50 under setting [1] was 0.0631 µM [rising, full curve, poor fit].

With `Cn1c(CO)cnc1SCC(=O)c1ccc(Cl)cc1`, the AC50 is, setting by setting: under setting [2], 6.31 µM [falling, single point]; under setting [1], 0.631 µM [falling, full curve, poor fit]. Regarding `C=CCn1c(COc2ccc3c(c2)CCCC3)nnc1SCC(=O)Nc1cccc(SC)c1`, the AC50 by setting is: under setting [2], 35.5 µM [falling, single point]; under setting [1], 17.8 µM [falling, single point]. As for `Cc1ccc(O)c(C2=NOC(O)(C(F)(F)C(F)F)C2)c1` (configuration not stated), the AC50 was 31.6 µM [rising, single point] under setting [2] and 35.5 µM [rising, single point] under setting [1].

As for `CN(CCCOc1ccccc1Br)Cc1ccccc1`, the AC50 under setting [1] is 0.316 µM [falling, full curve, poor fit]. As for `O=C(Nc1ccccc1N1CCCCC1)c1ccc(-c2ccc(Cl)cc2)o1`, under setting [1], the AC50 was 5.62 µM [rising, single point]. For the compound `COc1ccc(CNc2nc3ccccc3n2CCN2CCCCC2)c(OC)c1`, the AC50 under setting [1] is 11.2 µM [rising, single point].

In the case of `COc1ccc(/C=C/C(=O)N(CC(C)C)CC(C)C)cc1Br`, the AC50 under setting [1] was 2.51 µM [rising, full curve, poor fit].
